Measurements taken from US9951094B2, “Phosphole compound and fluorescent dye containing the same” (NATIONAL UNIVERSITY CORPORATION NAGOYA UNIVERSITY, priority 2014, dated 2018).

Test system: HeLa cells
Test: Cell staining experiment, confocal microscopy
Assay type: cell-based
Conditions: for Staining of cells (what was stained): 37° C.
[1] = 10 mM, 24 hours, per-pixel spectra fitted

Row | SMILES | Staining of cells (what was stained) (10 mM aqueous solution with 0.1% dimethyl sulfoxide, 24 hours) | Emission maximum of luminescence, cytoplasm [1] [nm] | Emission maximum of luminescence, many portions in the cytoplasm [1] [nm] | Emission maximum of luminescence, portions around the surfaces of the cells [1] [nm] | Staining of cells (what was stained) (100 nM aqueous solution with 0.001% dimethyl sulfoxide, one hour) | Emission maximum wavelengths of the two fitted fluorescence spectra in stained cells (100 nM, one hour, per-pixel spectra fitted)
1 | O=P1(c2ccccc2)C(c2ccc(N(c3ccccc3)c3ccccc3)cc2)=C(c2ccccc2)c2ccccc21 (stereo not drawn) [Compound 1, 2-[4-(N,N-diphenylamino)phenyl]-1,3-diphenylbenzo[b]phosphole-P-oxide] | the entire cell compartments except nuclei were stained | 565 | 550 | 530 |  | 
2 | CN(C)c1ccc(C2=Cc3ccccc3P2(=O)c2ccccc2)cc1 (stereo not drawn) [Compound 3, 2-[4-(N,N-dimethylamino)phenyl]-1-phenylbenzo[b]phosphole-P-oxide] |  |  |  |  | the entirety of the cells except nuclei was stained | 520 nm and 570 nm

“And” between values parts separate entries of the source, which are not always exact repeats. Equal entries are not always repeated.
